Source: article PMC5103195
Results are given in words; binding and its absence hold for the method and conditions named. Binding seen in cells or lysates may run through a third protein. Some binding calls cover weakened binding; strength is not graded here.

Amino acid sequences for entries named in this document (tags omitted).
UniProt O15105: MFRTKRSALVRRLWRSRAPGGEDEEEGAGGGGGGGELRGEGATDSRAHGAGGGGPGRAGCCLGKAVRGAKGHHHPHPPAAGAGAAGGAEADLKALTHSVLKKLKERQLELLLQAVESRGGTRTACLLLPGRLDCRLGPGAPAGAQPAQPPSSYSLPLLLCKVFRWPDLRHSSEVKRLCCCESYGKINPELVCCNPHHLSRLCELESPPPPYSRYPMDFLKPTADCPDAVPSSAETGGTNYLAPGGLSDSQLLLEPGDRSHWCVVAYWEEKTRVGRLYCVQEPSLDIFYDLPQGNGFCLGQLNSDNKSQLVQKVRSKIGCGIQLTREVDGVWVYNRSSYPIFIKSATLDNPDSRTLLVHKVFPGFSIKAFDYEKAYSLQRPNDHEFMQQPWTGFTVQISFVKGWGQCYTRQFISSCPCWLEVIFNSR
UniProt Q03135: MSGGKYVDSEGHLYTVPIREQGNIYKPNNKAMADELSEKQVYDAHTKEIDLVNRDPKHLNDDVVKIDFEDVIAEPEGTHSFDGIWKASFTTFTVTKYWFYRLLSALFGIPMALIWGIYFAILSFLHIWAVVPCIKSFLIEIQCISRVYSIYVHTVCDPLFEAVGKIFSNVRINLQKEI

Biological target: T1, Transforming growth factor-β receptor I (TGFRI) (human (endogenous in MDA-MB-231)) (UniProt P36897)
T1 sequence: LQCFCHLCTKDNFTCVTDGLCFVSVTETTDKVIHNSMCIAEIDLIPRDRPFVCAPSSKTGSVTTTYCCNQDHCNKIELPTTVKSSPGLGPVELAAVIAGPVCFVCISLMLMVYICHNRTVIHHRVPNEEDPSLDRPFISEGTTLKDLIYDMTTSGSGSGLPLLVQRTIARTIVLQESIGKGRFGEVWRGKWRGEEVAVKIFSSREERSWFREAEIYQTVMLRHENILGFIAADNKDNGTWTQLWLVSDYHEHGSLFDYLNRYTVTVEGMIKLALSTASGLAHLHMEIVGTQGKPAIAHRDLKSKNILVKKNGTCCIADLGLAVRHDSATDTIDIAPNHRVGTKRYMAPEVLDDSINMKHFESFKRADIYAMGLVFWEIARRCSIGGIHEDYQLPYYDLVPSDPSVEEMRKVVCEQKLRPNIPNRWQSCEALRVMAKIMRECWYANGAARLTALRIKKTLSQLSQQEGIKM
Assay: co-IP; whole cell lysates of MDA-MB-231 cells, untreated or treated with FFLZ (200 μg/ml) for 30 min (Fig. 5D) or 60 min (Fig. 5E); IP as indicated, then immunoblotting; endogenous proteins

binding | Substance
binds | Smad7 (from UniProt O15105 1-426)
binds | Caveolin-1 (from UniProt Q03135 1-178)
